# Laboratory results as given in publication PMC10165932, “Tripeptides conjugated with thiosemicarbazones: new inhibitors of tyrosinase for cosmeceutical use” (Journal of Enzyme Inhibition and Medicinal Chemistry, 2023).
# Where a SMILES comes first, the peptide text is derived from it.
# Test system: B16F0 murine melanoma cell line
# Assay type: cell-based
# Conditions: ratio, B16F0 (Figure 3)
# Experimental: The effect of the synthetic compounds on melanogenesis inhibition was performed in B16F0 murine melanoma cell line. The mouse model of human skin is often employed in skin biology and cancer research due to numerous similarities.[62] B16F0 murine melanoma cell line shares most of the melanogenesis with human melanocytes. Therefore, it is the proper model for screening the effect of potential inhibitors on melanogenesis.[63]
row,Compound,IC50 cell proliferation/ IC50 melanin production
1,"CC(C(=O)N[C@@H](Cc1ccccc1)C(=O)N[C@@H](Cc1ccccc1)C(=O)N[C@@H](Cc1ccc(O)cc1)C(=O)O)c1cccc(C(=NNC(N)=S)c2ccccc2)c1 (mixture of isomers) [Compound 10, TSC2-FFY-OH]",0.5
2,"CC(C(=O)N[C@@H](Cc1ccccc1)C(=O)N[C@@H](Cc1c[nH]c2ccccc12)C(=O)N[C@@H](Cc1ccc(O)cc1)C(=O)O)c1cccc(C(=NNC(N)=S)c2ccccc2)c1 (mixture of isomers) [Compound 12, TSC2-FWY-OH]",0.7
3,"CC(C(=O)O)c1cccc(/C(=N\NC(N)=S)c2ccccc2)c1 (stereo not drawn) [Compound 2, thiosemicarbazone of ketoprofen]",3.6
4,"CC(=O)N[C@@H](Cc1ccccc1)C(=O)N[C@@H](Cc1ccccc1)C(=O)N[C@@H](Cc1ccc(O)cc1)C(=O)O [Compound 4, Ac-FFY-OH] (Ac-Phe-Phe-Tyr-OH)",0.4
5,"CC(=O)N[C@@H](Cc1ccccc1)C(=O)N[C@@H](Cc1ccc(O)cc1)C(=O)N[C@@H](Cc1ccc(O)cc1)C(=O)O [Compound 5, Ac-FYY-OH] (Ac-Phe-Tyr-Tyr-OH)",0.6
6,"CC(=O)N[C@@H](Cc1ccccc1)C(=O)N[C@@H](Cc1c[nH]c2ccccc12)C(=O)N[C@@H](Cc1ccc(O)cc1)C(=O)O [Compound 6, Ac-FWY-OH] (Ac-Phe-Trp-Tyr-OH)",0.6
7,"NC(=S)N/N=C/c1ccc(C(=O)N[C@@H](Cc2ccccc2)C(=O)N[C@@H](Cc2ccccc2)C(=O)N[C@@H](Cc2ccc(O)cc2)C(=O)O)cc1 [Compound 7, TSC1-FFY-OH]",0.5
8,"NC(=S)N/N=C/c1ccc(C(=O)N[C@@H](Cc2ccccc2)C(=O)N[C@@H](Cc2ccc(O)cc2)C(=O)N[C@@H](Cc2ccc(O)cc2)C(=O)O)cc1 [Compound 8, TSC1-FYY-OH]",0.6
9,"NC(=S)N/N=C/c1ccc(C(=O)N[C@@H](Cc2ccccc2)C(=O)N[C@@H](Cc2c[nH]c3ccccc23)C(=O)N[C@@H](Cc2ccc(O)cc2)C(=O)O)cc1 [Compound 9, TSC1-FWY-OH]",0.5
10,"C/C(=N\NC(N)=S)c1ccc(C(=O)N[C@@H](Cc2ccccc2)C(=O)N[C@@H](Cc2ccccc2)C(=O)N[C@@H](Cc2ccc(O)cc2)C(=O)O)cc1 [Compound 13, TSC3-FFY-OH]",0.3
11,"C/C(=N\NC(N)=S)c1ccc(C(=O)N[C@@H](Cc2ccccc2)C(=O)N[C@@H](Cc2ccc(O)cc2)C(=O)N[C@@H](Cc2ccc(O)cc2)C(=O)O)cc1 [Compound 14, TSC3-FYY-OH]",0.6
12,"C/C(=N\NC(N)=S)c1ccc(C(=O)N[C@@H](Cc2ccccc2)C(=O)N[C@@H](Cc2c[nH]c3ccccc23)C(=O)N[C@@H](Cc2ccc(O)cc2)C(=O)O)cc1 [Compound 15, TSC3-FWY-OH]",1.0
